{"source": "patent US7648961B2", "about": "“Use of somatostatin or one of its analogues for preparing a medicament intended to regulate the ovarian follicular reserve in non-menopausal women” (Preglem S.A., priority 2003, dated 2010)", "system": "primordial follicles of ovarian cortex", "experiment": "Culture of ewe ovarian cortex fragments for 10 days: start of growth of primordial follicles", "assay_type": "cell-based", "details": "ANT1 peptide at 10^-6 M, 10 days of culture, versus control fragments, FIG. 5", "protocol": "Ovaries of adult ewes are collected immediately after slaughter. The ovaries are placed in an organ transport medium without serum (X-vivo, Bio Whittaker, Walkersville, Md., USA) at 10° C. and transported to the laboratory. Approximately 1 h after removal, the cortex is isolated from the medulla then fractionated into slices of 2 mm thickness (1 cm^2, average weight of 212 mg) after rinsing in new X-vivo. The cortex fragments are cultured in an oven under 5% oxygen for 10 days in well plates in the presence of DMEM. The medium is changed every 2 days. […]\n(§1) FIG. 1 represents the proportions of dormant follicles during a period of 10 days of culture of an ovarian cortex of a ewe in the presence or absence (control) of somatostatin (SST14). These proportions are measured for each sample tested on the day of the start of the experiment (D0), on the 4th day (D4), on the 7th day (D7) and on the 10th day (D10).\nas §1, with “FIG. 2” for “FIG. 1”, “of primary” for “of dormant”, “(D10). […]” for “(D10).”", "note": "Part of at least one peptide drawing is inferred or uncertain, most often the ends. Where a SMILES comes first, the peptide text is derived from it. Bridges are numbered along the chain shown (N, C = ends). [ ]: non-standard residue; d: D form. Phe(4-Cl) = N[C@@H](Cc1ccc(Cl)cc1)C(=O)O; 2Nal = N[C@@H](Cc1ccc2ccccc2c1)C(=O)O; 3Pal = N[C@@H](Cc1cccnc1)C(=O)O; NMeK = CN[C@@H](CCCCN)C(=O)O"}
{"smiles": "C[C@@H](O)[C@@H]1NC(=O)[C@H](CCCCN)N(C)C(=O)[C@@H](Cc2c[nH]c3ccccc23)NC(=O)[C@H](Cc2cccnc2)NC(=O)[C@H](NC(=O)[C@@H](N)Cc2ccc(Cl)cc2)CSSC[C@@H](C(=O)N[C@@H](Cc2ccc3ccccc3c2)C(N)=O)NC1=O", "note": "[ANT1 peptide, Cpa-c(DCys-3-Pal-DTrp-NMeLys-Thr-Cys)-2-Nal-NH2] (H-[Phe(4-Cl)][dC][3Pal][dW][NMeK]TC[2Nal]-NH2; disulfide 2-7)", "values": [{"measurement": "start of growth of the primordial follicles", "value": "accentuates the start of growth of the primordial follicles"}]}
